PubChem BioAssay AID2685 (National Center for Advancing Translational Sciences (NCATS), 2010)
The whole screen tested about 320,000 compounds, of which about 2,100 (0.66%) were called active. The inconclusive results got no clear call from the source; some entries with a clear call stand among them for comparison. Calls follow the shape of the dose curve; as a rule, active = well fitted inhibition curve with a large enough effect in the signal ratio, with a control signal flat (not every such curve was filed as active); inconclusive = small, poorly fitted or top-dose-only effect, or effect the other way, or a change in a side signal; inactive = flat fitted curve, though single readings scatter; the % refers to the signal ratio. Where the call is inconclusive, the potency comes from a doubtful curve fit.

Assay: qHTS Assay for Lipid Storage Modulators in Drosophila S3 Cells
Settings: BODIPY lipid droplet fluorescence, 18-24 h, cells fed with added oleic acid; lipid storage change, negative = inhibition: at 46.1 µM (top of the series) unless noted
How it was run: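 Drosophila S3 cells got compounds at several concentrations plus oleic acid (400 uM solution). Laser-scanning cytometry with 488 nm excitation read lipid droplets at 500-530 nm and cells at 575-640 nm. Percent activity was relative to 20 uM Triacsin C.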
% is scaled to controls: 0 for no effect and ±100 for the full control effect; potency is read from the fitted curve at half-maximal effect.

| SMILES | Potency | lipid storage change, negative = inhibition |
| --- | --- | --- |
| O=C(NCCC1CCCCN1S(=O)(=O)c1ccccc1)C(=O)Nc1ccc(F)cc1 (stereo not drawn) | inconclusive: 2.06 µM [falling, partial curve, poor fit] | – |
| Clc1ccc(/C=N/Nc2ncnc3nc[nH]c23)cc1 | – | inconclusive: 29.7% |
| CC(C)c1ccc2nc3sc(C(=O)N4CCc5ccccc5C4)c(N)c3cc2c1 | – | inconclusive: -81.9% |
| COc1ccc(-c2cc(C)nc(SCc3cccc(C(=O)O)c3)n2)cc1 | – | inconclusive: 4.71% |
| CCOc1ccc(CNC(=O)CCC(=O)N2Cc3cccc(OC)c3Oc3ncccc32)cc1 | – | inconclusive: 71.3% |
| COc1ccc(CCN(C)C(=O)C(CCSC)NC(=O)c2ccco2)cc1OC (stereo not drawn) | active: 2.31 µM | – |
| CCOc1ccc(N(CC(=O)O)S(=O)(=O)c2cccnc2)cc1 | inconclusive: 0.731 µM [activator, full curve, poor fit] | – |
| O=C(Cc1c(F)cccc1Cl)N1CCN(C(=O)c2ccco2)CC1 | – | inconclusive: -1.47% |
| COc1cnc(-c2ccccc2)nc1Oc1cccc(C)c1C | – | inactive |
| Cc1nc2ccc(Nc3ccncc3)cc2s1 | – | inconclusive: -51.4% [cytotoxic] [at 0.00295 µM] |
| Cc1ccc(C2=CC(c3ccc(N(C)C)cc3)n3nnnc3N2)cc1 (stereo not drawn) | – | inconclusive: -32.7% |
| c1ccc(-c2nnc(OCC3CCCO3)c3ccccc23)cc1 (stereo not drawn) | – | inconclusive: 10.7% |
| CC(NC(=O)c1cc2c(s1)CS(=O)(=O)C2)c1ccccc1 (stereo not drawn) | inconclusive: 6.51 µM [falling, single point] | – |
| Cc1nn(-c2cccc([N+](=O)[O-])c2)c(N)c1-c1ccccc1 | – | inconclusive: -21.1% |
| CCN(CC(=O)Nc1ccc(NC(C)=O)cc1)C(=O)c1ccccc1CCc1ccccc1 | – | inconclusive |
| CC1CCCN(CCCNC(=O)CN2C(=O)CSc3ccc(S(=O)(=O)N4CCOCC4)cc32)C1 (stereo not drawn) | – | inconclusive: 3.92% |
| CCn1c(CCC(N)=O)nnc1SCC(=O)Nc1cccc(S(=O)(=O)N2CCCC2)c1 | – | inconclusive: 84.1% |
| COc1cccc(CNC(=O)CCCN2C(=O)C(c3ccccc3)Oc3cccnc32)c1OC (stereo not drawn) | inconclusive: 23.1 µM [falling, single point] | – |
| Cc1cc(C)n(CCNS(=O)(=O)c2ccc(C)c(C)c2)n1 | – | inconclusive: -15.4% |
| O=C(Nc1cccc(F)c1)NC1CCCCCCC1 | active: 14.6 µM | – |
| O=S(=O)(Cc1ccccc1)N1CCCCCC1 | – | inconclusive: -30.2% |
| Cc1ccc(C(=O)NC(Cc2c[nH]c3ccccc23)C(=O)O)o1 (stereo not drawn) | – | inconclusive: 32.4% |
| COC(=O)COc1ccc(S(=O)(=O)N2CCc3ccccc3C2)cc1C | – | inconclusive: -0.391% |

A different layout for 2 compounds above.
SMILES | Potency | lipid storage change, negative = inhibition
Cc1cc(C)n(CCNS(=O)(=O)c2ccc(C)c(C)c2)n1 | – | inconclusive: -15.4%
O=C(Nc1cccc(F)c1)NC1CCCCCCC1 | active: 14.6 µM | –
